# Data from the supplement of paper PMC4604168 (melanoma cell lines).
# Some of the results follow. Single values are uncertain, as repeats are few or missing.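 Cells were imaged in 1,536-well plates, and nuclei stained with an antibody against cleaved PARP were counted against all DNA-stained nuclei to give the apoptosis fraction. Screening doses were chosen to leave most cells alive, and resting and induced cleaved-PARP levels differ strongly between cell lines.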
# Experiments:
# Test in all cases: cleaved PARP positive nuclei fraction relative to DMSO control; melanoma cells; higher = more apoptosis
# Conditions in all cases: library dose: low library concentration; 72 h
# COLO792 = test system: COLO792
# COLO800 = test system: COLO800
# COLO829 = test system: COLO829
# G361 = test system: G361
# IPC-298 = test system: IPC-298
# IST-MEL1 = test system: IST-MEL1
# LB2518-MEL = test system: LB2518-MEL
# LOXIMVI = test system: LOXIMVI
# MEL-HO = test system: MEL-HO
SMILES,cleaved PARP positive nuclei fraction (COLO792),cleaved PARP positive nuclei fraction (COLO800),cleaved PARP positive nuclei fraction (COLO829),cleaved PARP positive nuclei fraction (G361),cleaved PARP positive nuclei fraction (IPC-298),cleaved PARP positive nuclei fraction (IST-MEL1),cleaved PARP positive nuclei fraction (LB2518-MEL),cleaved PARP positive nuclei fraction (LOXIMVI),cleaved PARP positive nuclei fraction (MEL-HO)
"Cn1cc(C2=C(c3cn(C4CCN(Cc5ccccn5)CC4)c4ccccc34)C(=O)NC2=O)c2ccccc21 [Enzastaurin] + O=C(O)c1ccc(-c2c[nH]c3ncc(-c4ccccc4)cc23)cc1C1CCCC1 [GSK650394] (first compound 0.8 µM, partner dose 0.16 µM)",131%,82.8%,97.5%,86.4%,22.3%,203%,44%,493%,147%
"C[As](C)SC[C@H](NC(=O)CC[C@H](N)C(=O)O)C(=O)NCC(=O)O [Darinaparsin] + C=CCn1c(=O)c2cnc(Nc3ccc(N4CCN(C)CC4)cc3)nc2n1-c1cccc(C(C)(C)O)n1 [MK1775] (first compound 0.4 µM, partner dose 0.02 µM)",106%,40.6%,117%,107%,190%,67.2%,79.7%,181%,133%
"N.N.[Cl][Pt][Cl] [cisplatin] + NCC(=O)Nc1ccc(-n2nc(C(F)(F)F)cc2-c2ccc3c(ccc4ccccc43)c2)cc1 [OSU03012] (first compound 1.6 µM, partner dose 1 µM)",244%,109%,137%,94.3%,47.2%,47.8%,,43.7%,69.5%
"CN1CCN(c2ccc3nc(-c4c(N)c5c(F)cccc5[nH]c4=O)[nH]c3c2)CC1 [Dovitinib] + Cc1cc(SCc2sc(-c3ccc(C(F)(F)F)c(F)c3)nc2C)ccc1OCC(=O)O [GW0742] (first compound 0.1 µM, partner dose 2 µM)",32%,248%,145%,86.3%,93.1%,107%,,146%,
